“And” between values parts separate entries of the source, which are not always exact repeats. Identical values can stand only once. The campaign covered roughly 390,000 compounds. About 760 (0.19%) were called active. The inconclusive results got no clear call from the source; some entries with a clear call stand among them for comparison. Calls come from the whole dose curve; as a rule, active = well fitted inhibition curve with a large enough effect; inconclusive = small, poorly fitted or top-dose-only effect; inactive = flat fitted curve, though single readings scatter. A potency beside an inconclusive call is a rough fit, not a confirmed value.
assay: qHTS for Inhibitors of Vif-A3F Interactions: qHTS; settings: HeLa A3F-eYFP + Vif (tagged APOBEC3F with the HIV-1 protein that degrades it), YFP fluorescence increase; series mostly up to 46.1 µM; activity, negative = active: at the top concentration; note: nearly all actives have a fitted effect of over 65% in size; for activity, negative = active: % of control where 0% means no effect
Procedure, shortened: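 HeLa cells stably expressing A3F-eYFP plus Vif, plated and incubated overnight at 37 deg C, then exposed to compounds overnight at 37 deg C. Blocked degradation read as raised yellow fluorescence (Ex 488/Em 500-530).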
Potency is the fitted concentration of half-maximal effect.

Structure (SMILES) | activity, negative = active | Potency
CCOc1ccccc1C1NC(=O)NC(C)=C1C(=O)OC1CCCCC1 (stereo not given) | inactive: -2.23% | –
Cc1oc(/N=C/c2ccc(F)cc2)c(C#N)c1C | – | inconclusive: 20 µM [inhibitor, partial curve, poor fit]
COC(=O)C(=O)C/C(=N/Nc1ncnc2ccccc12)c1ccc(Cl)cc1 | – | inconclusive: 17.8 µM [inhibitor, partial curve, poor fit]
Cc1cc(C)nc(-n2nc(C)c3c2NC(=O)CC3c2ccccc2OC(C)C)n1 (stereo not given) | – | inconclusive: 35.5 µM [inhibitor, single point]
COc1cc(/C=C/C(=O)OCC(=O)NCc2ccco2)ccc1O | inactive: -18.2% | –
Cc1cccc(NC(=S)NNC(=S)NCc2ccccc2)c1 | inactive: -6.15% | –
Cc1cccc(NC(=O)c2cc(=O)n(Cc3ccccc3)c(=O)[nH]2)c1 | inactive: 15.6% | –
N#CC1=C(N)C(C#N)(C#N)C(c2ccc[nH]2)C2CCCC=C12 (stereo not given) | – | inconclusive: 12.6 µM [inhibitor, single point]
Cc1ccc(-n2c(O)c(/C=N/NC(=O)C3COc4ccccc4O3)c3ccccc3c2=O)cc1 (stereo not given) | – | inconclusive: 3.55 µM [inhibitor, partial curve, poor fit]
CCn1c(Cl)c(C=O)s/c1=N\S(=O)(=O)c1ccccc1 | – | inconclusive: 35.5 µM [inhibitor, single point]
CCOc1ccc(CCNC(=O)c2ccc(Cn3c(=O)c4cccn4c4cccnc43)cc2)cc1 | – | inconclusive: 10 µM [inhibitor, partial curve]
CC(C)NC(=O)NNC(=O)Cn1nnc(-c2cccc(Cl)c2Cl)n1 | – | inconclusive: 25.1 µM [inhibitor, single point]
CCOC(=O)C(C)Sc1nc2c(cnn2-c2ccc(F)cc2)c(=O)[nH]1 (stereo not given) | – | inconclusive: 35.5 µM [inhibitor, single point]
O=C(Nc1ccc(F)cc1)C1CCCN(S(=O)(=O)c2cccc3nonc23)C1 (stereo not given) | – | inconclusive: 15.8 µM [inhibitor, partial curve, poor fit]
CN1/C(=C\C=C2/SC(=S)NC2=O)C(C)(C)c2ccccc21 | – | inconclusive: 11.2 µM [inhibitor, partial curve, poor fit]
CC(=O)Nc1nonc1NC(=O)CSc1nc2ccccc2o1 | inactive: -12.8% | –
O=C(NCC1CCCO1)C(c1ccc(F)cc1)N(C(=O)Cn1nnc(-c2ccc(F)cc2)n1)c1cccc(O)c1 (stereo not given) | – | inconclusive: 3.98 µM [inhibitor, single point]
O=C(Nc1c(-c2ccccc2)nc2sccn12)c1ccccc1 | inactive: -2.01% | –
CN1C/C(=C/c2ccsc2)C(=O)/C(=C/c2ccsc2)C1 | – | inconclusive: 6.31 µM [inhibitor, single point]
CN(C)/N=C/C=C1\CCC/C(=C\c2ccc(F)c(F)c2)C1=O | – | inconclusive: 35.5 µM [inhibitor, single point]
CCN(CC)C(=O)c1sc2nc(-c3cccs3)cc(-c3cccs3)c2c1N | – | inconclusive: 12.6 µM [inhibitor, partial curve, poor fit]
NS(=O)(=O)c1ccc(CCNS(=O)(=O)c2cccc3nsnc23)cc1 | – | inconclusive: 0.562 µM [inhibitor, full curve, poor fit]

Structure (SMILES) | activity, negative = active | Potency
N#Cc1cc(C#N)c(SCC(=O)N2CC(=O)Nc3ccccc32)nc1N | – | inconclusive: 25.1 µM [inhibitor, single point]
Cc1ccsc1/C=N/Nc1ccc(F)cc1F | inactive: -1.04% | –
COc1ccc(C2C(C#N)=C(N)OC3=C2C(=O)CC(C)(C)C3)c([N+](=O)[O-])c1OC (stereo not given) | inactive: -1.71% | –
Cc1nc(N)nc(N/N=C/c2c(F)cccc2Cl)n1 | inactive: -19.1% | –
Oc1ccc2ccccc2c1N=Nc1nccs1 | – | inconclusive: 22.4 µM [inhibitor, single point]
CN1C2=C(C(=O)CC(C)(C)C2)C(c2cccs2)C2=C1CC(C)(C)CC2=O | – | inconclusive: 35.5 µM [inhibitor, single point]
Cc1nn(-c2ccc([N+](=O)[O-])cc2)c2c1C(c1cccc(Br)c1)N1C(=N2)C(=O)Nc2ccccc21 (stereo not given) | – | inconclusive: 11.2 µM [inhibitor, partial curve, poor fit]
C/C(=N\Nc1nc(C)cc(C)n1)c1ccc(C)o1 | – | inconclusive: 35.5 µM [inhibitor, single point]
Nc1c(S(=O)(=O)c2cccs2)c2nc3ccccc3nc2n1Cc1cccs1 | – | inconclusive: 22.4 µM [inhibitor, single point]
Cc1ccnc(NS(=O)(=O)c2ccc(NC(=O)c3ccc(N4C(=O)CCC4=O)cc3)cc2)n1 | – | inconclusive: 22.4 µM [inhibitor, partial curve, poor fit]
O=C(CSc1nc2ccccc2s1)c1cc2ccccc2o1 | – | active: 25.1 µM
O=C(N/N=C/C(Br)=C/c1ccccc1)c1cccnc1 | – | inconclusive: 3.98 µM [inhibitor, single point]
CCOC(=O)c1c(/N=C/N(C)C)sc(/C=N/Nc2ccccc2)c1-c1ccc(Cl)cc1 | inactive: -3.67% | –
CCS(=O)(=O)N1N=C(c2ccc(NS(C)(=O)=O)cc2)CC1c1ccccc1 (stereo not given) | – | inconclusive: 15.8 µM [inhibitor, partial curve, poor fit]
Cc1cccc(/C=N/Nc2nncc3ccccc23)c1 | – | inconclusive: 35.5 µM [inhibitor, partial curve, poor fit]
O=C(CN1CCN(Cc2ccccc2)CC1)c1ccc(Br)cc1 | – | inconclusive: 35.5 µM [inhibitor, single point]
CC1=NN(c2nc(N)nc(/C(C#N)=C/c3ccc([N+](=O)[O-])o3)n2)C(C)(C)C1 | – | inconclusive: 3.98 µM [inhibitor, partial curve, poor fit]
COc1ccc(CNC(=O)COC(=O)CCS(=O)(=O)c2ccc(C)cc2)cc1OC | – | inconclusive: 10 µM [inhibitor, partial curve, poor fit]
Cc1cc(C)c(C)c(S(=O)(=O)N2CCN(C(=O)c3ccco3)CC2)c1C | – | inconclusive: 3.98 µM [inhibitor, partial curve, poor fit]
Cc1cccc(NC(=O)CSCc2nc3c(nnn3Cc3ccc(F)cc3)c(=O)[nH]2)c1C | – | inconclusive: 7.94 µM [inhibitor, partial curve, poor fit]
Cc1ccc(OCCn2c(CNc3cccc(C)c3)nc3ccccc32)cc1 | – | inconclusive: 35.5 µM [inhibitor, single point]
CC1(C)Cc2c(cnn2-c2ccc(F)cc2)C(NC(=O)c2ccc(=O)oc2)C1 (stereo not given) | – | inconclusive: 35.5 µM [inhibitor, single point]

Structure (SMILES) | activity, negative = active | Potency
CCOC(=O)C1CCCN(C(=O)CSc2nc(C)cc(C)n2)C1 (stereo not given) | – | inconclusive: 5.01 µM [inhibitor, partial curve]
Cc1cccc(-n2c(C)cc(C=C3C(=O)c4ccccc4C3=O)c2C)c1 | – | inconclusive: 35.5 µM [inhibitor, single point]
Cc1cccc(C(=O)N=c2c(C#N)cc3c(=O)n4cccc(C)c4nc3n2Cc2ccco2)c1 | – | inconclusive: 35.5 µM [inhibitor, single point] and inconclusive: 22.4 µM [inhibitor, partial curve, poor fit]
CCCSc1ncc(Cl)c(C(=O)Nc2ccc(S(=O)(=O)Nc3ncccn3)cc2)n1 | – | inconclusive: 3.55 µM [inhibitor, single point]
CCCCN(C(=O)CSc1nc(CCC)cc(=O)[nH]1)c1c(N)n(Cc2ccccc2)c(=O)[nH]c1=O | – | inconclusive: 3.16 µM [inhibitor, partial curve, poor fit]
CC(=O)Nc1ccc(S(=O)(=O)c2cc(O)ccc2O)cc1 | – | inconclusive: 35.5 µM [inhibitor, single point]
O=C1c2cccc3c(N4CCCCC4)ccc(c23)C(=O)N1c1ccc(O)cc1 | – | inconclusive: 3.55 µM [inhibitor, partial curve, poor fit]
O=C(COC(=O)c1cc(-c2cccc3ccccc23)nc2ccccc12)NC1CCS(=O)(=O)C1 (stereo not given) | – | inconclusive: 22.4 µM [inhibitor, single point]
Cc1ccc(-c2csc3nc4cc(C(=O)NC5CCC(O)CC5)ccc4c(=O)n23)cc1 (stereo not given) | inactive: -5.97% | –
Cc1ccc(S(=O)(=O)CCC(=O)NC2CCCC2)cc1 | inactive: 0.0042% | –
COc1ccc(NCC(O)COc2ccc(C(C)(C)C)cc2)cc1 (stereo not given) | inactive: 1.93% | –
CCN(C(=S)Nc1cccc2ccccc12)c1ccccc1 | – | inconclusive: 25.1 µM [inhibitor, single point]
COc1ccccc1NCCC(=O)OCC(=O)NCc1ccco1 | inactive: -6.88% | –
Fc1ccc(NC(=S)N2CCn3cccc3C2c2cccnc2)cc1 (stereo not given) | inactive: -10% | –
CC(C)[C@H](NS(=O)(=O)c1ccccc1)C(=O)OCC(=O)N1N=C(c2ccc(Cl)cc2)CC1c1ccco1 (stereo not given in full) | inactive: -13.8% | –
N#C/C(=C\c1cn(-c2ccccc2)nc1-c1cc2ccccc2o1)c1nc2ccccc2[nH]1 | – | inconclusive: 2.82 µM [inhibitor, partial curve, poor fit]
O=C(Nc1ccc2nc(SCC(=O)N3CCCc4ccccc43)sc2c1)c1cccc(F)c1 | inactive: -4.61% | –
Cc1ccc(Cl)c2c1N[C@@H](c1ccc(C(=O)O)cc1)[C@H]1CC=C[C@@H]21 | inactive: 2.29% | –
O=C(Cc1c(Cl)cccc1Cl)OCC(=O)N1CCN(C(=O)c2ccco2)CC1 | – | inconclusive: 4.47 µM [inhibitor, single point]
Cc1ccc(C)c(NC(=O)CCN2C(=O)c3ccccc3Sc3ncccc32)c1 | inactive: -0.119% | –
COc1ccc(/C=N/NC(=S)SC)cc1OC | – | inconclusive: 3.55 µM [inhibitor, partial curve, poor fit]
